Results deposited as PubChem BioAssay AID652259 (Drosophila RNAi Screening Center, 2013).
In all, the deposit lists about 22,000 reagents; shown is a random part of those with a known target gene and a result. In the full data, 233 (1.1%) were called active. 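Light values are raw, unnormalised plate reads; the ratio scores behind the reporter calls were not deposited.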 No sequences are given here. The record does not give: the amount of reagent, the time to read-out, the dose of the treatment.

- Aim: 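Genome-wide hunt for genes that control Wingless pathway activity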 (primary screen)
- Cell system: Drosophila clone 8 imaginal disc epithelial cells
- Reagent: long dsRNA against Drosophila genes
- Challenge: pathway stimulated by co-transfected Wingless expression plasmid
- Measurement: 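Firefly luciferase from a tcf-site Wingless reporter, measured alongside co-transfected Renilla luciferase that tracks transfection; pathway stimulated by a Wingless plasmid; the firefly-to-Renilla ratio is not deposited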
- Reading the numbers: firefly reporter light: higher = more Wg reporter light, before normalisation; Renilla control light: higher = more transfected or surviving cells
- Call rule: 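Strong candidates differ from their plate mean by at least two out of four per-plate statistical tests; weak candidates meet just one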
- Calls: active = candidate regulator (raises or lowers reporter); inactive = not a candidate

Obp49a [DRSC22562] gave firefly reporter light, replicate 1 = 6.83e5; firefly reporter light, replicate 2 = 7.60e5; Renilla control light, replicate 1 = 2.78e5; Renilla control light, replicate 2 = 2.64e5; inactive.
With knock-down of CG6985 [DRSC16164], the screen gave firefly reporter light, replicate 1 = 4915; firefly reporter light, replicate 2 = 8539; Renilla control light, replicate 1 = 2087; Renilla control light, replicate 2 = 2851; inactive.
Pak [DRSC12602] scored firefly reporter light, replicate 1 = 5146; Renilla control light, replicate 1 = 1616; inactive.
CG14416 [DRSC18639] gave firefly reporter light, replicate 1 = 18627; Renilla control light, replicate 1 = 10136; inactive.
Nap1 [DRSC04626] scored firefly reporter light, replicate 1 = 19457; Renilla control light, replicate 1 = 6407; inactive.
Silencing of CG17167 [DRSC20902] gave: firefly reporter light, replicate 1 = 17905; Renilla control light, replicate 1 = 12900; inactive.
After knock-down of CG17167 [DRSC20903], the screen gave firefly reporter light, replicate 1 = 26386; Renilla control light, replicate 1 = 1430; inactive.
With knock-down of mRpL54 [DRSC04545] the results were firefly reporter light, replicate 1 = 12764; Renilla control light, replicate 1 = 3717; inactive.
dgt2 [DRSC02548] gave firefly reporter light, replicate 1 = 3896; firefly reporter light, replicate 2 = 5717; Renilla control light, replicate 1 = 1440; Renilla control light, replicate 2 = 2932; inactive.
After knock-down of CG5934 [DRSC15922], the screen gave firefly reporter light, replicate 1 = 5237; Renilla control light, replicate 1 = 3824; inactive.
Depletion of cathD [DRSC07588] gave: firefly reporter light, replicate 1 = 2512; firefly reporter light, replicate 2 = 3377; Renilla control light, replicate 1 = 411; Renilla control light, replicate 2 = 2112; inactive.
CG12061 [DRSC20715] scored firefly reporter light, replicate 1 = 18354; Renilla control light, replicate 1 = 10137; inactive.
Knock-down of hwt [DRSC19386] gave: firefly reporter light, replicate 1 = 2022; Renilla control light, replicate 1 = 832; inactive.
Silencing of hwt [DRSC19695] came out at: firefly reporter light, replicate 1 = 17931; Renilla control light, replicate 1 = 7760; inactive.
Depletion of CG8950 [DRSC07300] resulted in: firefly reporter light, replicate 1 = 15082; Renilla control light, replicate 1 = 4912; inactive.
With knock-down of cyst [DRSC02023], the record shows firefly reporter light, replicate 1 = 8181; Renilla control light, replicate 1 = 3165; inactive.
Silencing of CG1271 [DRSC08290] gave: firefly reporter light, replicate 1 = 4707; Renilla control light, replicate 1 = 848; inactive.
